# Results taken from publication PMC12612255.
# Amino acid sequences for entries named in this document (tags omitted).
# UniProt A5YKK6: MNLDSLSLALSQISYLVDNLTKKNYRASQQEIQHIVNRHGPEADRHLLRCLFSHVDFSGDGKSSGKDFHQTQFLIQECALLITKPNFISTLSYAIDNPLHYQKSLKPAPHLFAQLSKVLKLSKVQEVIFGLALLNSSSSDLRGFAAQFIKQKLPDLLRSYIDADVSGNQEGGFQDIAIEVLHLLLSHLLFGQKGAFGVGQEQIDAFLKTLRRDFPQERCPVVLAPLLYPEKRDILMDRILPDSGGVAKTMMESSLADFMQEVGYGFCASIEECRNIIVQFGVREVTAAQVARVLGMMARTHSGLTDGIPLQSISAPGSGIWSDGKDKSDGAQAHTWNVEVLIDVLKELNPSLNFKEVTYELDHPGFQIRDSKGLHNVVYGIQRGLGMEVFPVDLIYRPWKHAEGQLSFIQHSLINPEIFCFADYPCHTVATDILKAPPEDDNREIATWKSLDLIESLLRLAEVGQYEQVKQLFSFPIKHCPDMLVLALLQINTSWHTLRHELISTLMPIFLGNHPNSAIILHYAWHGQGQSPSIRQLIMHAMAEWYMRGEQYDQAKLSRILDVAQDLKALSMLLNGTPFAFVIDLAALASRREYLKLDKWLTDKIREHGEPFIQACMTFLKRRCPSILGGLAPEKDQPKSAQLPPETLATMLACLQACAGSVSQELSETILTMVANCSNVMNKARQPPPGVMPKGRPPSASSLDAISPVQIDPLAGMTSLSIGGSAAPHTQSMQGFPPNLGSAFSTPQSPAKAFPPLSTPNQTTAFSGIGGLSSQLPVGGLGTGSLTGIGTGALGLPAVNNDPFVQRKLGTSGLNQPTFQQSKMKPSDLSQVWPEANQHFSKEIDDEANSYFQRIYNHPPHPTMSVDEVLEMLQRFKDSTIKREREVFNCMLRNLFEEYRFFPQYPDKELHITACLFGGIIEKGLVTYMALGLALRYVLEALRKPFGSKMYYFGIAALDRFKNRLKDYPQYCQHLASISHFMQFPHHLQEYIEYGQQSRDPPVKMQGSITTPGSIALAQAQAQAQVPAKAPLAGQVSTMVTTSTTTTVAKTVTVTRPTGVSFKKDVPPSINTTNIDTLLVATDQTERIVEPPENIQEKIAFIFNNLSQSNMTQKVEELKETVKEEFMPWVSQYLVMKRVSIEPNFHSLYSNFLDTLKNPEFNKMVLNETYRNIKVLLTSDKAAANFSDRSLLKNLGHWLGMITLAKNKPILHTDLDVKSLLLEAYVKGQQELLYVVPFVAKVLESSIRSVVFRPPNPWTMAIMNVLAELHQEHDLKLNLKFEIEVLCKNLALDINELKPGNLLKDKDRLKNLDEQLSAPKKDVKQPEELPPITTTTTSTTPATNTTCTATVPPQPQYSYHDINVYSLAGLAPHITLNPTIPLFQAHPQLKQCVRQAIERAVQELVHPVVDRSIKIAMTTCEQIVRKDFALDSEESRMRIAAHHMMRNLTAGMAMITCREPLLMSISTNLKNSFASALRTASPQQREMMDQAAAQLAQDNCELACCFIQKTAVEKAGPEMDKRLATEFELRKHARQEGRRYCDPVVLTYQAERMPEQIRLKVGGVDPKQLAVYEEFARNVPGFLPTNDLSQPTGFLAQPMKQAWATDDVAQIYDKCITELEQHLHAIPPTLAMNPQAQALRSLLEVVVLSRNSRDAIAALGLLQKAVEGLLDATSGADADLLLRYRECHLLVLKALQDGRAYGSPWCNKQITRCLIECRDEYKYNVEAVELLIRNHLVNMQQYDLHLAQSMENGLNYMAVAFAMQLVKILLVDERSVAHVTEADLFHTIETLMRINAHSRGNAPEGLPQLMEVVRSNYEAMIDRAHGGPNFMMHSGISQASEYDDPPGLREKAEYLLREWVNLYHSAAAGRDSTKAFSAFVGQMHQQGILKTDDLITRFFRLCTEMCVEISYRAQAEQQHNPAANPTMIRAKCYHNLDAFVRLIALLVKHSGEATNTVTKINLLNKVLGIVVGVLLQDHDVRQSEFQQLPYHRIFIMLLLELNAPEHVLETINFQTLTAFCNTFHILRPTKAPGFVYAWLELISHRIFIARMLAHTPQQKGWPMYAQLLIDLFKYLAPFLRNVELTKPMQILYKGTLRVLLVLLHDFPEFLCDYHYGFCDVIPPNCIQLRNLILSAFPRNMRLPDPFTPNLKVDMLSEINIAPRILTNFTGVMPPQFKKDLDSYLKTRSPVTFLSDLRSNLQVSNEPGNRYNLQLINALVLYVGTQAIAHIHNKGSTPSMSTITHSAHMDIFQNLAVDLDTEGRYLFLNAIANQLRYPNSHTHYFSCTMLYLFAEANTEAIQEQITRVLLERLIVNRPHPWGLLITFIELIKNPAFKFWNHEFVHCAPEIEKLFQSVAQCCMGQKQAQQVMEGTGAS
# Results are given in words; binding and its absence hold for the method and conditions named. In cells and extracts the contact can be indirect. These calls come from enrichment with a bait or labelling near it, and not all partners need be listed.
# B1: U6 snRNA-associated Sm-like protein LSM4 (protein, UniProt Q9Y4Z0 1-139)
# chain: MLPLSLLKTAQNHPMLVELKNGETYNGHLVSCDNWMNINLREVICTSRDGDKFWRMPECYIRGSTIKYLRIPDEIIDMVKEEVVAKGRGRGGLQQQKQQKGRGMGGAGRGVFGGRGRGGIPGTGRGQPEKKPGRQAGKQ
# B2: U4/U6 small nuclear ribonucleoprotein Prp4 (PRPF4) (protein, UniProt O43172 1-522)
# chain: MASSRASSTQATKTKAPDDLVAPVVKKPHIYYGSLEEKERERLAKGESGILGKDGLKAGIEAGNINITSGEVFEIEEHISERQAEVLAEFERRKRARQINVSTDDSEVKACLRALGEPITLFGEGPAERRERLRNILSVVGTDALKKTKKDDEKSKKSKEEYQQTWYHEGPNSLKVARLWIANYSLPRAMKRLEEARLHKEIPETTRTSQMQELHKSLRSLNNFCSQIGDDRPISYCHFSPNSKMLATACWSGLCKLWSVPDCNLLHTLRGHNTNVGAIVFHPKSTVSLDPKDVNLASCAADGSVKLWSLDSDEPVADIEGHTVRVARVMWHPSGRFLGTTCYDRSWRLWDLEAQEEILHQEGHSMGVYDIAFHQDGSLAGTGGLDAFGRVWDLRTGRCIMFLEGHLKEIYGINFSPNGYHIATGSGDNTCKVWDLRQRRCVYTIPAHQNLVTGVKFEPIHGNFLLTGAYDNTAKIWTHPGWSPLKTLAGHEGKVMGLDISSDGQLIATCSYDRTFKLWMAE
# B3: U4/U6.U5 tri-snRNP-associated protein 1 (SNUT1) (protein, UniProt O43290 1-800)
# chain: MGSSKKHRGEKEAAGTTAAAGTGGATEQPPRHREHKKHKHRSGGSGGSGGERRKRSRERGGERGSGRRGAEAEARSSTHGRERSQAEPSERRVKREKRDDGYEAAASSKTSSGDASSLSIEETNKLRAKLGLKPLEVNAIKKEAGTKEEPVTADVINPMALRQREELREKLAAAKEKRLLNQKLGKIKTLGEDDPWLDDTAAWIERSRQLQKEKDLAEKRAKLLEEMDQEFGVSTLVEEEFGQRRQDLYSARDLQGLTVEHAIDSFREGETMILTLKDKGVLQEEEDVLVNVNLVDKERAEKNVELRKKKPDYLPYAEDESVDDLAQQKPRSILSKYDEELEGERPHSFRLEQGGTADGLRERELEEIRAKLRLQAQSLSTVGPRLASEYLTPEEMVTFKKTKRRVKKIRKKEKEVVVRADDLLPLGDQTQDGDFGSRLRGRGRRRVSEVEEEKEPVPQPLPSDDTRVENMDISDEEEGGAPPPGSPQVLEEDEAELELQKQLEKGRRLRQLQQLQQLRDSGEKVVEIVKKLESRQRGWEEDEDPERKGAIVFNATSEFCRTLGEIPTYGLAGNREEQEELMDFERDEERSANGGSESDGEENIGWSTVNLDEEKQQQDFSASSTTILDEEPIVNRGLAAALLLCQNKGLLETTVQKVARVKAPNKSLPSAVYCIEDKMAIDDKYSRREEYRGFTQDFKEKDGYKPDVKIEYVDETGRKLTPKEAFRQLSHRFHGKGSGKMKTERRMKKLDEEALLKKMSSSDTPLGTVALLQEKQKAQKTPYIVLSGSGKSMNANTITK
# B4: U4/U6 small nuclear ribonucleoprotein Prp3 (PRPF3) (protein, UniProt O43395 1-683)
# chain: MALSKRELDELKPWIEKTVKRVLGFSEPTVVTAALNCVGKGMDKKKAADHLKPFLDDSTLRFVDKLFEAVEEGRSSRHSKSSSDRSRKRELKEVFGDDSEISKESSGVKKRRIPRFEEVEEEPEVIPGPPSESPGMLTKLQIKQMMEAATRQIEERKKQLSFISPPTPQPKTPSSSQPERLPIGNTIQPSQAATFMNDAIEKARKAAELQARIQAQLALKPGLIGNANMVGLANLHAMGIAPPKVELKDQTKPTPLILDEQGRTVDATGKEIELTHRMPTLKANIRAVKREQFKQQLKEKPSEDMESNTFFDPRVSIAPSQRQRRTFKFHDKGKFEKIAQRLRTKAQLEKLQAEISQAARKTGIHTSTRLALIAPKKELKEGDIPEIEWWDSYIIPNGFDLTEENPKREDYFGITNLVEHPAQLNPPVDNDTPVTLGVYLTKKEQKKLRRQTRREAQKELQEKVRLGLMPPPEPKVRISNLMRVLGTEAVQDPTKVEAHVRAQMAKRQKAHEEANAARKLTAEQRKVKKIKKLKEDISQGVHISVYRVRNLSNPAKKFKIEANAGQLYLTGVVVLHKDVNVVVVEGGPKAQKKFKRLMLHRIKWDEQTSNTKGDDDEESDEEAVKKTNKCVLVWEGTAKDRSFGEMKFKQCPTENMAREHFKKHGAEHYWDLALSESVLESTD
# B5: U4/U6.U5 tri-snRNP-associated protein 2 (SNUT2) (protein, UniProt Q53GS9 1-565)
# chain: MSGRSKRESRGSTRGKRESESRGSSGRVKRERDREREPEAASSRGSPVRVKREFEPASAREAPASVVPFVRVKREREVDEDSEPEREVRAKNGRVDSEDRRSRHCPYLDTINRSVLDFDFEKLCSISLSHINAYACLVCGKYFQGRGLKSHAYIHSVQFSHHVFLNLHTLKFYCLPDNYEIIDSSLEDITYVLKPTFTKQQIANLDKQAKLSRAYDGTTYLPGIVGLNNIKANDYANAVLQALSNVPPLRNYFLEEDNYKNIKRPPGDIMFLLVQRFGELMRKLWNPRNFKAHVSPHEMLQAVVLCSKKTFQITKQGDGVDFLSWFLNALHSALGGTKKKKKTIVTDVFQGSMRIFTKKLPHPDLPAEEKEQLLHNDEYQETMVESTFMYLTLDLPTAPLYKDEKEQLIIPQVPLFNILAKFNGITEKEYKTYKENFLKRFQLTKLPPYLIFCIKRFTKNNFFVEKNPTIVNFPITNVDLREYLSEEVQAVHKNTTYDLIANIVHDGKPSEGSYRIHVLHHGTGKWYELQDLQVTDILPQMITLSEAYIQIWKRRDNDETNQQGA
# Biological target: YTHDF2 (human (endogenous in HaCaT)) (UniProt Q9Y5A9)
# Test: affinity purification with mass spectrometry; YTHDF2 immunoprecipitates from HaCaT cells, 1 h post-sham or -UVB, against an IgG control; SDS-PAGE, in-gel trypsin digestion, nanoLC-MS/MS
row,binding,Molecule
1,binds,B1
2,binds,B2
3,binds,B3
4,binds,B4
5,binds,B5

# Biological target: YTHDF2 (human (endogenous in HaCaT)) (UniProt Q9Y5A9)
# Test: as above
# Remark: another data set of the same source
row,binding,Molecule
1,binds,CNOT1 (from UniProt A5YKK6 1-2376)
2,binds,p62 (also known as SQSTM1) (from UniProt Q13501 1-440)
